Experimental data reported in publication PMC11970399.
No constants are given. Whether binding was seen depends on the method and setting. In cells and extracts the contact can be indirect. Some entries that bind do so weakly or less than the wild type.

Chains of the proteins cited; added tags and fusions are not shown.
UniProt Q13485: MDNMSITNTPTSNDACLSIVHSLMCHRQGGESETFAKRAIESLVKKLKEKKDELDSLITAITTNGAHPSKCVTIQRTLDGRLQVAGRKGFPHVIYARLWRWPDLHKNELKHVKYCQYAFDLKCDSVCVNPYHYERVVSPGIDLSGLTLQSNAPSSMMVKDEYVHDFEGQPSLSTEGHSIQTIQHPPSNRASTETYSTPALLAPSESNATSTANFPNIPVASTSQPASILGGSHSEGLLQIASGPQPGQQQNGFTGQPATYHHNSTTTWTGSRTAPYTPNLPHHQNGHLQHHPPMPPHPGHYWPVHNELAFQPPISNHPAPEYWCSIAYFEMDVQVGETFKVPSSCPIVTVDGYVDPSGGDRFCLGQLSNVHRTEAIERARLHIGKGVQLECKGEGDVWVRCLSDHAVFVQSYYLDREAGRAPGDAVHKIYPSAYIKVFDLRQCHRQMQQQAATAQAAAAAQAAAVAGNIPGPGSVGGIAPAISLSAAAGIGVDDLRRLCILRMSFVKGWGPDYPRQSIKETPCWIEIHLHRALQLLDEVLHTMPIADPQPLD

Target: T1, mitochondrial fission factor (MFF) (human (endogenous in primary CD4+ T cells)) (UniProt Q9GZY8)
T1 sequence: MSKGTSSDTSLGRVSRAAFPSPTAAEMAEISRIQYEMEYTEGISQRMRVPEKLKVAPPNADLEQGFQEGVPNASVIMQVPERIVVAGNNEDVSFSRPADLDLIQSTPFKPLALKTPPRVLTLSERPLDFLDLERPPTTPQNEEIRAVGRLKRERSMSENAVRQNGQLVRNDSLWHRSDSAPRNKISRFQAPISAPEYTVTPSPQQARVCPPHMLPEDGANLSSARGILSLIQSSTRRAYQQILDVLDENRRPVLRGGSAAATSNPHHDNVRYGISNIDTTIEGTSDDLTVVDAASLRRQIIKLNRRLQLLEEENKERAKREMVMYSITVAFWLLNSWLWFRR
Test: co-IP; IP of MFF from cleared lysates of 4 x 10^7 activated CD4+ T cells treated with PBS or TGF-β1 (10 ng/mL) for 2 h; IP lysis buffer 150 mM KCl, 1% Triton X-100, 50 mM Tris-HCl pH7.6, 1 mM EDTA, 10% glycerol; Protein A/G beads and antibody overnight at 4°C; immunoblot

Which binding does the source give for SMAD4 (from UniProt Q13485 1-552) here?
The binding was “binds”.
